Source: PubChem BioAssay AID485298 (National Center for Advancing Translational Sciences (NCATS), 2010)
Hit rate of the full screen: of about 320,000 compounds, about 740 (0.23%) were called active. Inconclusive means that the source gave no clear call. Such entries were picked first, then a sample of the others. Calls follow the shape of the dose curve; as a rule, active = well fitted activation curve with a large enough effect; inconclusive = small, poorly fitted or top-dose-only effect; inactive = no such curve, though single readings can be large or run the other way. A potency beside an inconclusive call is a rough fit, not a confirmed value.

Experiment: qHTS Assay for Small Molecule Inhibitors of Mitochondrial Division or Activators of Mitochondrial Fusion; also: nearly all actives have a fitted effect of over 45% in size; as to growth rescue (activation): % of control where 0% means no effect
Details: S. cerevisiae fusion-defective mutant growth rescue, CellTiterGlo 48 h; growth rescue (activation): at 46.1 µM (top of the series) unless noted
From the text: NIH Chemical Genomics Center [NCGC] NIH Molecular Libraries Probe Production centers Network [MLPCN] MLPCN Grant: MH081279-01 Assay Submitter (PI): Jodi M. Nunnari NCGC Assay Overview: The budding yeast S. cerevisiae is a powerful system to study mitochondrial fusion. Unlike other organisms, yeast cells without functional mitochondrial DNA (mtDNA) can be propagated and studied as long as they maintain a mitochondrial compartment and are provided with a fermentable carbon source. When mitochondrial fusion is blocked in yeast, mitochondrial tubules rapidly fragment and division continues unopposed. Under conditions where fusion is compromised in mammalian cells, nearly identical changes in mitochondrial structure have been observed. Thus, these findings indicate that steady state mitochondrial structure in cells is a characteristic and specific indicator of fusion activity. Mounting evidence has pointed to a connection between mitochondrial dynamics and apoptosis in mammalian cells. These studies indicate that in mammalian cells mitochondrial dynamics are more integrated into cellular processes than in yeast cells and have evolved not only to distribute the organelle but also to aid in the regulation of cellular homeostasis. Mitochondrial fusion proteins attenuate apoptosis by inhibiting the release of cytochrome c from mitochondria, in part by controlling cristae structures. Thus, small molecules that inhibit mitochondrial […] may promote apoptosis and potentially act as novel chemotherapeutics and stimulation of apoptosis has become an attractive target of anti-cancer therapies. To identify inhibitors of mitochondrial division, we exploit the growth phenotypes of mitochondrial fusion-defective mutants. The temperature sensitive fusion alleles, such as fzo1-1 and mgm1-5, cause mitochondrial membranes to fragment in cells under non-permissive conditions and cells lose mtDNA, and are unable to grow in the presence of non-fermentable carbon source glycerol. Inhibiting mitochondrial division rescues growth. We have developed and optimized a luminescence cell viability assay in 1536 well format for the identification of inhibitors in the yeast mitochondrial fusion-defective assay.
The yeast glycerol stocks where kindly supplied by the laboratory of Dr. Jodi Nunnari, University of California, Davis. All yeast glycerol stock solutions were stored in single use aliquots at -80C. The CellTiterGlo luminescence reagent, containing luciferase and luciferin, were purchased from Promega, and the reagents were stored according to manufacturer's instructions. The Buffer components for the YPEG yeast growth medium were purchased from Sigma-Aldrich (St. Louis, MO). YPEG growth medium: 1% (w/v) yeast extract, 2% (w/v) Bacto-peptone, 3% Ethanol, 3% glycerol, 0.4mM Tryptophan, 0.36mM Adenine. qHTS Assay Protocol: 1.#Dispense 2.5 ul yeast growth medium per 1536 well plate. 2.#Transfer 23 nl per well of compound to plate. 3.#Dispense 2.5 ul yeast solution at appropriate seeding density per well. 4.#Incubate for 48 hours at 37C. 5.#Dispense 5 ul of CellTiterGlow solution per well. 6.#Incubate at ambient for 10 minutes. 7.#Read using bio-luminescence protocol on Viewlux.
Potency is read from the fitted curve at half-maximal effect.

Row | Structure (SMILES) | growth rescue (activation) | Potency
1 | O=C(CSc1nnc(NC(=O)c2ccc3c(c2)OCO3)s1)NCc1ccco1 | inactive: 1.31% | –
2 | O=C(COc1ccc(Cl)cc1)NCCc1ccccn1 | inactive: 11.9% | –
3 | CCOc1ccc(/C=N/NC(=O)c2ccccc2NC(=O)c2ccc(OC)cc2)cc1 | inactive: 5.44% | –
4 | O=C(c1ccc(-c2ccccc2)cc1)C1CCCN(C(=O)c2cncs2)C1 (centres undefined) | – | inconclusive: 22.4 µM [activator, single point]
5 | COc1cccc2cc(C(=O)N3CCN(c4ccccn4)CC3)c(=O)oc12 | – | inconclusive: 35.5 µM [activator, single point]
6 | CCN(Cc1ccccc1)C(=O)c1cccc(S(=O)(=O)N2CCN(c3ccccc3)CC2)c1 | – | inconclusive: 17.8 µM [activator, single point]
7 | Cn1c(=O)[nH]c2nnc(-c3ccc(Cl)c(Cl)c3)nc2c1=O | – | active: 2.51 µM
8 | O=C(c1ccc(C#Cc2ccccc2)o1)N1CCN(c2ccccn2)CC1 | – | inconclusive: 17.8 µM [activator, single point]
9 | CCN1C(=O)[C@@H]2[C@@H](c3ccc(SC4CCCCC4)cc3)N3CCCC[C@@]3(C(=O)OC)[C@@H]2C1=O | – | inconclusive: 14.1 µM [activator, single point]
10 | COc1cccc(NC(=S)N2CCC(c3ccc(C)cc3)C2)c1 (centres undefined) | – | inconclusive: 31.6 µM [activator, single point]
11 | CN(CCCN1CCOCC1)C(=O)c1cc(COc2cccc(C(F)(F)F)c2)on1 | – | inconclusive: 6.31 µM [activator, partial curve]
12 | Cc1ccc2c(c1)C(c1ccccc1)N(C(=O)c1ccc(Br)o1)CC(=O)N2 (centres undefined) | – | inconclusive: 14.1 µM [activator, single point]
13 | CN1CCCC1CCNc1ccc2c(=O)c3ccccc3oc2c1 (centres undefined) | inactive: 0.62% | –
14 | Cc1ccc(S(=O)(=O)O/N=C2\CCCc3ccccc32)cc1 | inactive: -1.36% | –
15 | c1ccc(-n2nnnc2-c2cnc(-c3ccncc3)nc2-c2cccs2)cc1 | – | inconclusive: 12.6 µM [activator, partial curve]
16 | CCOC(=O)c1c(NC(=O)CSc2ncnc3[nH]ncc23)sc2c1CCC(C)C2 (centres undefined) | – | inconclusive: 11.2 µM [activator, partial curve]
17 | CCC(C)(C)c1ccc(OCCCC[n+]2ccc(C)cc2)c(C(C)(C)CC)c1 | inactive: 0.797% | –
18 | Cc1cc(C)cc(OC2CCCCC2NS(=O)(=O)c2ccccc2)c1 (centres undefined) | – | inconclusive: 11.2 µM [activator, partial curve]
19 | O=C(Cc1ccccc1)NCc1ccc(-n2cccc2)cc1 | – | inconclusive: 5.62 µM [activator, single point]

Record cards, from the list above. Values in the order: growth rescue (activation) | Potency
`O=C(CSc1nnc(NC(=O)c2ccc3c(c2)OCO3)s1)NCc1ccco1` is entered as inactive: 1.31% | –
`CCOC(=O)c1c(NC(=O)CSc2ncnc3[nH]ncc23)sc2c1CCC(C)C2` (centres undefined) is entered as – | inconclusive: 11.2 µM [activator, partial curve]
